Source: the supplement of paper PMC6078165
Values are relative to the signal before dosing, not to a vehicle control; the signal also falls without drug.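 Labels refer to human fibroblasts, largely primary: uterine (C12385, HUF), lung (H6013), bone (Hs27A), adrenal (HADF), skin (WS1), plus mammary HMF and breast cancer-associated Hs343T. Cancer lines are basal-like or mesenchymal-like triple-negative breast cancer. The paper counts as hits responses shifting over 3x the replicate standard deviation. The tissue of the other fibroblasts is not given here.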

System: HCC1143
Test: relative JC-1 red fluorescence (viability) vs pre-drug, coculture with fibroblast (fraction); higher = more viable cancer cells
Experimental: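 JC-1 labelled TNBC cells cocultured 1:1 (1,500 cells each) with CellTrace Violet stained primary or stromal fibroblasts in 384-well plates in FluoroBrite medium, treated with one of 42 anticancer drugs at 0.1, 1, 10 or 100 uM. JC-1 red fluorescence (mitochondrial integrity in cancer cells only) was read by plate reader every 8 h for 72 h. Values are normalised to each well's pre-drug value. The stock of one drug was tenfold lower, so its dose labels may be too high.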

CN(Cc1cnc2nc(N)nc(N)c2n1)c1ccc(C(=O)N[C@@H](CCC(=O)O)C(=O)O)cc1 [Methotrexate]
relative JC-1 red fluorescence
Settings | 8 h | 16 h | 24 h | 32 h | 40 h | 48 h | 56 h | 64 h | 72 h
0.1 µM, coculture fibroblast: C12385 | 0.855 | 0.754 | 0.698 | 0.625 | 0.565 | 0.521 | 0.48 | 0.447 | 0.433
0.1 µM, coculture fibroblast: H6013 | 0.742 | 0.618 | 0.59 | 0.573 | 0.5 | 0.507 | 0.477 | 0.467 | 0.434
0.1 µM, coculture fibroblast: H6019 | 0.786 | 0.708 | 0.671 | 0.605 | 0.563 | 0.54 | 0.495 | 0.461 | 0.43
0.1 µM, coculture fibroblast: H6076 | 0.811 | 0.78 | 0.715 | 0.647 | 0.608 | 0.595 | 0.567 | 0.545 | 0.541
0.1 µM, coculture fibroblast: H6231 | 0.821 | 0.858 | 0.753 | 0.594 | 0.632 | 0.585 | 0.542 | 0.494 | 0.457
0.1 µM, coculture fibroblast: HADF | 0.728 | 0.64578 | 0.627 | 0.6436 | 0.548 | 0.532 | 0.493 | 0.47 | 0.455
0.1 µM, coculture fibroblast: HCFa | 0.8096 | 0.686 | 0.653 | 0.64733 | 0.539 | 0.513 | 0.459 | 0.423 | 0.393
0.1 µM, coculture fibroblast: HCPF | 0.7977 | 0.8087 | 0.73 | 0.58354 | 0.624 | 0.57326 | 0.5329 | 0.493 | 0.462
0.1 µM, coculture fibroblast: HHSteC | 0.863 | 0.786 | 0.752 | 0.712 | 0.647 | 0.613 | 0.573 | 0.542 | 0.492
0.1 µM, coculture fibroblast: HMF | 0.8137 | 0.834 | 0.754 | 0.6281 | 0.651 | 0.608 | 0.5572 | 0.51 | 0.475
0.1 µM, coculture fibroblast: HPFa | 0.921 | 0.817 | 0.763 | 0.667 | 0.602 | 0.562 | 0.51891 | 0.468 | 0.437
0.1 µM, coculture fibroblast: HUF | 0.8599 | 0.753 | 0.701 | 0.6324 | 0.5699 | 0.538 | 0.484 | 0.449 | 0.425
0.1 µM, coculture fibroblast: Hs5 | 0.863 | 0.8869 | 0.8193 | 0.7639 | 0.71737 | 0.685 | 0.652 | 0.616 | 0.612
0.1 µM, coculture fibroblast: Hs27A | 0.78 | 0.721 | 0.723 | 0.755 | 0.703 | 0.738 | 0.706 | 0.708 | 0.646
0.1 µM, coculture fibroblast: Hs343T | 0.824 | 0.845 | 0.773 | 0.663 | 0.674 | 0.627 | 0.576 | 0.541 | 0.498
0.1 µM, coculture fibroblast: WS1 | 0.818 | 0.735 | 0.687 | 0.602 | 0.543 | 0.497 | 0.456 | 0.425 | 0.42
1 µM, coculture fibroblast: C12385 | 0.84 | 0.7234 | 0.6734 | 0.609 | 0.5409 | 0.493 | 0.455 | 0.423 | 0.41
1 µM, coculture fibroblast: H6013 | 0.75314 | 0.6259 | 0.588 | 0.568 | 0.505 | 0.505 | 0.474 | 0.474 | 0.441
1 µM, coculture fibroblast: H6019 | 0.7604 | 0.666 | 0.628 | 0.571 | 0.527 | 0.506 | 0.463 | 0.43 | 0.403
1 µM, coculture fibroblast: H6076 | 0.774 | 0.771 | 0.732 | 0.679 | 0.638 | 0.61 | 0.582 | 0.558 | 0.563
1 µM, coculture fibroblast: H6231 | 0.812 | 0.821 | 0.708 | 0.571 | 0.58 | 0.532 | 0.487 | 0.444 | 0.417
1 µM, coculture fibroblast: HADF | 0.769 | 0.689 | 0.676 | 0.682 | 0.607 | 0.599 | 0.583 | 0.564 | 0.526
1 µM, coculture fibroblast: HCFa | 0.759 | 0.666 | 0.6217 | 0.601 | 0.509 | 0.475 | 0.424 | 0.387 | 0.346
1 µM, coculture fibroblast: HCPF | 0.819 | 0.754 | 0.7049 | 0.66 | 0.621 | 0.59 | 0.558 | 0.531 | 0.526
1 µM, coculture fibroblast: HHSteC | 0.861 | 0.766 | 0.73 | 0.683 | 0.603 | 0.573 | 0.516 | 0.491 | 0.435
1 µM, coculture fibroblast: HMF | 0.809 | 0.785 | 0.71 | 0.614 | 0.607 | 0.567 | 0.52 | 0.491 | 0.474
1 µM, coculture fibroblast: HPFa | 0.924 | 0.796 | 0.7441 | 0.6462 | 0.585 | 0.551 | 0.4967 | 0.458 | 0.424
1 µM, coculture fibroblast: HUF | 0.872 | 0.763 | 0.71 | 0.637 | 0.578 | 0.538 | 0.481 | 0.448 | 0.411
1 µM, coculture fibroblast: Hs5 | 0.8751 | 0.901 | 0.8532 | 0.788 | 0.749 | 0.709 | 0.672 | 0.646 | 0.629
1 µM, coculture fibroblast: Hs27A | 0.713 | 0.62243 | 0.584 | 0.602 | 0.502 | 0.514 | 0.483 | 0.481 | 0.442
1 µM, coculture fibroblast: Hs343T | 0.791 | 0.787 | 0.715 | 0.624 | 0.6 | 0.555 | 0.504 | 0.48027 | 0.4492
1 µM, coculture fibroblast: WS1 | 0.876 | 0.795 | 0.774 | 0.724 | 0.685 | 0.641 | 0.592 | 0.558 | 0.536
10 µM, coculture fibroblast: C12385 | 0.867 | 0.794 | 0.719 | 0.664 | 0.603 | 0.571 | 0.539 | 0.495 | 0.48
10 µM, coculture fibroblast: H6013 | 0.7371 | 0.6427 | 0.6181 | 0.6005 | 0.51476 | 0.5018 | 0.4701 | 0.4527 | 0.437
10 µM, coculture fibroblast: H6019 | 0.787 | 0.71869 | 0.679 | 0.612 | 0.5761 | 0.555 | 0.523 | 0.499 | 0.479
10 µM, coculture fibroblast: H6076 | 0.795 | 0.757 | 0.702 | 0.658 | 0.612 | 0.597 | 0.57 | 0.545 | 0.5568
10 µM, coculture fibroblast: H6231 | 0.81 | 0.853 | 0.768 | 0.618 | 0.655 | 0.602 | 0.546 | 0.496 | 0.4651
10 µM, coculture fibroblast: HADF | 0.718 | 0.648 | 0.637 | 0.657 | 0.575 | 0.567 | 0.542 | 0.523 | 0.51
10 µM, coculture fibroblast: HCFa | 0.7517 | 0.6227 | 0.583 | 0.563 | 0.461 | 0.425 | 0.3641 | 0.327 | 0.294
10 µM, coculture fibroblast: HCPF | 0.83 | 0.744 | 0.72 | 0.673 | 0.634 | 0.606 | 0.566 | 0.536 | 0.524
10 µM, coculture fibroblast: HHSteC | 0.861 | 0.773 | 0.728 | 0.695 | 0.617 | 0.58 | 0.537 | 0.51 | 0.473
10 µM, coculture fibroblast: HMF | 0.776 | 0.755 | 0.678 | 0.593 | 0.571 | 0.542 | 0.498 | 0.466 | 0.434
10 µM, coculture fibroblast: HPFa | 0.8979 | 0.7949 | 0.753 | 0.667 | 0.597 | 0.567 | 0.519 | 0.473 | 0.447
10 µM, coculture fibroblast: HUF | 0.874 | 0.766 | 0.682 | 0.593 | 0.514 | 0.473 | 0.425 | 0.387 | 0.355
10 µM, coculture fibroblast: Hs5 | 0.87398 | 0.8338 | 0.7912 | 0.76 | 0.698 | 0.673 | 0.647 | 0.622 | 0.635
10 µM, coculture fibroblast: Hs27A | 0.706 | 0.634 | 0.601 | 0.646 | 0.519 | 0.508 | 0.481 | 0.463 | 0.481
10 µM, coculture fibroblast: Hs343T | 0.83 | 0.837 | 0.774 | 0.692 | 0.699 | 0.664 | 0.625 | 0.591 | 0.559
10 µM, coculture fibroblast: WS1 | 0.84 | 0.752 | 0.697 | 0.633 | 0.569 | 0.516 | 0.454 | 0.415 | 0.374
100 µM, coculture fibroblast: C12385 | 0.8267 | 0.726 | 0.67 | 0.607 | 0.308 | 0.286 | 0.27 | 0.25 | 0.241
100 µM, coculture fibroblast: H6013 | 0.719 | 0.645 | 0.607 | 0.582 | 0.517 | 0.515 | 0.482 | 0.477 | 0.443
100 µM, coculture fibroblast: H6019 | 0.7884 | 0.708 | 0.663 | 0.602 | 0.557 | 0.535 | 0.492 | 0.461 | 0.435
100 µM, coculture fibroblast: H6076 | 0.811 | 0.792 | 0.771 | 0.752 | 0.711 | 0.706 | 0.679 | 0.665 | 0.674
100 µM, coculture fibroblast: H6231 | 0.819 | 0.8 | 0.732 | 0.631 | 0.635 | 0.596 | 0.55 | 0.512 | 0.489
100 µM, coculture fibroblast: HADF | 0.718 | 0.648 | 0.614 | 0.608 | 0.524 | 0.494 | 0.46 | 0.431 | 0.401
100 µM, coculture fibroblast: HCFa | 0.7721 | 0.699 | 0.648 | 0.617 | 0.532 | 0.501 | 0.45 | 0.415 | 0.374
100 µM, coculture fibroblast: HCPF | 0.806 | 0.8 | 0.738 | 0.638 | 0.6408 | 0.6049 | 0.56 | 0.5201 | 0.4931
100 µM, coculture fibroblast: HHSteC | 0.816 | 0.753 | 0.722 | 0.681 | 0.609 | 0.572 | 0.514 | 0.478 | 0.43
100 µM, coculture fibroblast: HMF | 0.773 | 0.7755 | 0.715 | 0.64 | 0.602 | 0.563 | 0.518 | 0.487 | 0.464
100 µM, coculture fibroblast: HPFa | 0.907 | 0.807 | 0.789 | 0.721 | 0.673 | 0.651 | 0.614 | 0.597 | 0.567
100 µM, coculture fibroblast: HUF | 0.836 | 0.737 | 0.682 | 0.606 | 0.555 | 0.499 | 0.454 | 0.42 | 0.389
100 µM, coculture fibroblast: Hs5 | 0.83554 | 0.814 | 0.764 | 0.738 | 0.659 | 0.627 | 0.607 | 0.585 | 0.586
100 µM, coculture fibroblast: Hs27A | 0.711 | 0.62 | 0.597 | 0.626 | 0.512 | 0.512 | 0.489 | 0.476 | 0.463
100 µM, coculture fibroblast: Hs343T | 0.7995 | 0.807 | 0.732 | 0.65 | 0.615 | 0.571 | 0.524 | 0.485 | 0.448
100 µM, coculture fibroblast: WS1 | 0.824 | 0.717 | 0.671 | 0.59 | 0.532 | 0.491 | 0.447 | 0.415 | 0.389
